Measurements from patent US20200299384A1.
No constants are given. Whether binding was seen depends on the method and setting. Some entries that bind do so weakly or less than the wild type.

Chains of the proteins cited; added tags and fusions are not shown. Residues count along the entry.
UniProt P07766, residues 23-207: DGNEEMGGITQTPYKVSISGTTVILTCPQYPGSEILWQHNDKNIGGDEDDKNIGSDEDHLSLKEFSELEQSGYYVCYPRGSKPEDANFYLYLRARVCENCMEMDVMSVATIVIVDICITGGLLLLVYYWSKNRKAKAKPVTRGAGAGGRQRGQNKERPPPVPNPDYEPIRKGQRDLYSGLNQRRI

T1: Cynomolgus Monkey CD3 epsilon protein (Cynomolgus monkey) (UniProt Q95LI5)
T1 sequence (looked up): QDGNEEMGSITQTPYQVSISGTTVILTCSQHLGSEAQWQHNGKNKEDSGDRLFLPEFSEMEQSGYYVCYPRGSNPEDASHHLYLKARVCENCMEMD


Key:
[1] = target: T1, Cynomolgus Monkey CD3 epsilon protein (Cynomolgus monkey); assay: ELISA, antigen coated on plate
[2] = target: human CD3 expressed on cells (Jurkat cells; human CD4 T cells) (human) (UniProt P07766); assay: flow cytometry on Jurkat cells
[3] = target: human CD3 expressed on cells (Jurkat cells; human CD4 T cells) (human) (UniProt P07766); assay: flow cytometry on human CD4 T cells

| Binder | binding [1] | binding [2] | binding [3] |
| --- | --- | --- | --- |
| WBP3311_2.166.48 (antibody, IgG2a, V domains shown) VH: QVQLQQSGPELVKPGASVKIACKASGYSFTTYYIHWVKQRPGQGLEWIGWIFPGNDNIKYSEKFKGKATLTADTSSSTAYMQLSSLTSEDSAVYFCAIDSVSIYYFDYWGQGTTLTVSS VL: DIVMSQSPSSLAVSAGEKVTMSCKSSQSLLNSRTRKNYLAWYQQKPGQSPKLLIYWASTRKSGVPDRFTGSGSGTDFTLTINSVQAEDLAVYYCTQSFILRTFGGGTKLEIK | binds | binds | – |
| WBP3311_2.400.5 (antibody, V domains shown) VH: QVQLQQSGPELVNPGASVKISCKASGYSFTNYYLHWVKQRPGQGLEWIGWIFPESDNTKYNEKLKGKATLTADTSSDTAYMHLSSLTFEDSAVYFCARDSVGNYFFDFWGQGTTLTVSS VL: DIVMSQSPSSLAVSAGEKVTMRCKSSQSLVNNRTRKNYLAWYQQKPGQPPKLLIYWASTRESGVPDRFTGSGSGTDFTLTISSVQAEDLAVYYCAQSFILRTFGGGTKLEIK | binds | binds | – |
| WBP3311_2.482.5 (antibody, V domains shown) VH: QVQLQQSGPELVKPGSSVKISCKPSGYTFTTYYIHWVKQRPGQGLEWIGWIFPGSDNIKYNENFKDKATLTADTSSSTAYMQLSSLTSEDSAVYFCARDSVSRYYFDYWGQGTILTVSS VL: DIVMSQSPSSLAVSAGEKVTMSCKSSQSLVNDRTRKNYLAWYQQKPGLSPKLLIYWASTRESGVPDRFTGSGSGTDFTLTISSVQAEDLAVYYCAQSFILRTFGGGTKLEIK | binds | binds | – |
| WBP331_2.488.33 (antibody, V domains shown) VH: QVQLQQSGPELVKPGTSVKISCKASGFSFTNYYIHWVKQRPGQGPEWIGWIFPGTVNTKYNEKFKGKATLTADTSSNTAFMQLSSLTSADSAVYFCARDSVGIYYFDFWGLGTTLTVSS VL: DIVMSQSPSSLAVSAGEKVTVSCKSSQSLLNNRTRKNYLAWYQQKPGQSPKLLIYWASTRESGVPDRFTGSGSGTDFTLTISSVQAEDLAVYYCTQSFILRTFGGGTKLEIK | binds | binds | – |
| WBP3311_2.615.8 (antibody, V domains shown) VH: QVQLQQSGPELVKPGTSMKISCKASGYSFTDFYTHWVRQRPGQGLEWIGWIFPGSDNIKYNEKFKGKATLTADTSSSTAYMQLSSLTSEDSAVYFCARDSVSVYYFDYWGQGTTLTVSS VL: DIVMSQSPSSLAVTAGEKVTMSCKSSQSLLNIRTRKNYLAWYQQKPGQSPKLLIYWASTRDSGVPDRFTGSGSGTDFTLTISSVQAEDLAVYYCTQSFILRTFGGGTKLEIK | binds | binds | – |
| WBP3311_2.166.48-z1-uIgG1K (antibody, V domains shown) VH: QVQLVQSGAEVKKPGSSVKVSCKASGYSFTTYYIHWVRQAPGQGLEWMGWIFPGNDNIKYSEKFKGRVTITADKSTSTAYMELSSLRSEDTAVYYCAIDSVSIYYFDYWGQGTLVTVSS VL: DIVMTQSPDSLAVSLGERATINCKSSQSLLNSRTRKNYLAWYQQKPGQPPKLLIYWASTRKSGVPDRFSGSGSGTDFTLTISSLQAEDVAVYYCTQSFILRTFGGGTKVEIK | binds | binds | binds |
